Our source for the binding values is doi:10.1101/2020.12.13.422562.

The target in the experiment is T1, HA epitope-tagged Asc1 (S. cerevisiae) (UniProt P38011).
T1 sequence: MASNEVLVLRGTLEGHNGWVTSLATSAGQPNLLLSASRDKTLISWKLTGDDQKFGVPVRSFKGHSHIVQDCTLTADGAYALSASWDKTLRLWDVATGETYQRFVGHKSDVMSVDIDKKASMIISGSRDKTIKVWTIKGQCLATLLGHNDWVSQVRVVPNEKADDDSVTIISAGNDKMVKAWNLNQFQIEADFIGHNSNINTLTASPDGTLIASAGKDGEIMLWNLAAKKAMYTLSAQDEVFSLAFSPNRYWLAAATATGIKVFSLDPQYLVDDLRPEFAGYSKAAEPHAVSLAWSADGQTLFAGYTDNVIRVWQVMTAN
The experiment can be described thus: co-IP.

These are yes or no findings as the source states them, for the method shown. Binding seen in cells or lysates may run through a third protein. Some results given as binding are weak or reduced against the parent protein; the word gives no strength. Tags and fused reporters may be left off the sequences shown.

B1: FLAG epitope-tagged Scp160 (protein, UniProt P06105 1-1222)
chain: MSEEQTAIDSPPSTVEGSVETVTTIDSPSTTASTIAATAEEHPQLEKKPTPLPSLKDLPSLGSNAAFANVKVSWGPNMKPAVSNSPSPSPSAPSLTTGLGAKRMRSKNIQEAFTLDLQSQLSITKPELSRIVQSVKKNHDVSVESTLSKNARTFLVSGVAANVHEAKRELVKKLTKPINAVIEVPSKCKASIIGSGGRTIREISDAYEVKINVSKEVNENSYDEDMDDTTSNVSLFGDFESVNLAKAKILAIVKEETKNATIKLVVEDEKYLPYIDVSEFASDEGDEEVKVQFYKKSGDIVILGPREKAKATKTSIQDYLKKLASNLDEEKVKIPSKFQFLIDAEELKEKYNVIVTFPSTPDDELVSFVGLRDKVGEAITYARSSSKSYVVESLDISKAHSKNLTHAKNLIMYFTKYSVLKGLEESHPNVKISLPSIQSLPTAETVTIHISAKSDEANDIKAVRKELISFVNNIPPSETLVITDLDYELFGGSIKHCLLASESSVAFVQFGDYYPNDNSILLVALTEDEDFKPSIEEIQASLNKANESLNSLRTKQNNMETKTYEFSEEVQDSLFKPSSATWKLIMEDISEQEGHLQIKLHTPEENQLTVRGDEKAAKAANKIFESILNSPSSKSKMTVNIPANSVARLIGNKGSNLQQIREKFACQIDIPNEENNNASKDKTVEVTLTGLEYNLTHAKKYLAAEAKKWADIITKELIVPVKFHGSLIGPHGTYRNRLQEKYNVFINFPRDNEIVTIRGPSRGVNKAHEELKALLDFEMENGHKMVINVPAEHVPRIIGKNGDNINDIRAEYGVEMDFLQKSTDPKAQETGEVELEITGSRQNIKDAAKRVESIVAEASDFVTEVLKIDHKYHKSIVGSGGHILREIISKAGGEEIRNKSVDIPNADSENKDITVQGPQKFVKKVVEEINKIVKDAENSVTKTIDIPAERKGALIGPGGIVRRQLESEFNINLFVPNKDDPSGKITITGAPENVEKAEKKILNEIIRENFDREVDVPASIYEYVSERGAFIQKLRMDLSVNVRFGNTSKKANKLARAPIEIPLEKVCGSTEGENAEKTKFTIEEVGAPTSSEEGDITMRLTYEPIDLSSILSDGEEKEVTKDTSNDSAKKEEALDTAVKLIKERIAKAPSATYAGYVWGADTRRFNMIVGPGGSNIKKIREAADVIINVPRKSDKVNDVVYIRGTKAGVEKAGEMVLKSLRR
As to B1, the binding entry is reported as “binds weakly”.
